PubChem BioAssay AID1259424 | University of Nebraska Medical Center – 2018
Assay: 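Find knockdowns that reproduce the expression shifts seen after KSR1 loss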 (primary screen). Cells: human HCT116 colon cancer cells. Reagent: siRNA pool against human genes, 50 nM. Detection: 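Six signature mRNAs by branched-DNA multiplex assay, scaled to two housekeeping genes and non-targeting median, log2; matched to mean KSR1 knockdown profile by Pearson correlation and euclidean distance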. Reading the numbers: mean correlation with KSR1 profile: higher = expression change more like KSR1 knockdown.
This is a random part of about 14,000 reagents. 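Higher correlation or smaller distance means closer resemblance to KSR1 loss; control wells, including KSR1 knockdowns, recur on many plates.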 Further read-outs or replicates are left out here. Reagent sequences are not shown. Not given: the time to read-out.

gene	mean correlation with KSR1 profile
MORC4	0.0943
TPM4	0.0738
MAPK10	0.93
LARP6	-0.33
SLC2A11	-0.346
SCGB1D2	-0.118
PLEKHB1	-0.621
IL23A	-0.798
TSPAN10	0.53
MRPL50	-0.417
CHRM5	-0.597
DKK3	-0.474
TRAPPC6A	-0.46
STK39	-0.861
CHPT1	-0.036
AQP2	0.112
DLX1	0.758
ARMC10	0.699
PBOV1	0.0417
CACNG5	0.405
BTBD2	-0.75
MSH4	0.094
SIL1	-0.134
PAGR1	0.211
HUS1B	-0.135
TGFB2	-0.35
MFAP4	-0.0963
ABCD3	0.286
PTPN7	-0.378
HLA-A	-0.196
AMZ2	-0.151
SLC5A3	0.00814
CZIB	-0.508
TIAM1	-0.196
MAPK4	-0.178
RBL2	0.179
ASMTL	-0.405
TMEM50B	0.398
NUAK2	-0.221
SLC46A2	0.756
CCDC92	0.662
IFT52	-0.619
SMAD9	0.136
RAD1	0.0873
QTRT2	0.608
GRM1	0.678
ZFYVE19	0.609
TMEM186	-0.0532
ZC3H7B	0.27
ANKS1A	-0.601

Laid out differently: entries from further up.
| gene | mean correlation with KSR1 profile |
| --- | --- |
| QTRT2 | 0.608 |
| GRM1 | 0.678 |
| ZFYVE19 | 0.609 |
| TMEM186 | -0.0532 |
